Test results published in US20050064382A1, “Method of prevention of lysosomal leakage in eukaryotic cells by using 6-methyluracil based water-soluble compounds and method of producing thereof” (priority 2002, published 2005).

System: Baltic sprats (small herring)
Assay: Maturation (proteolytic decay) of salted fish in storage
Details: 6 degrees C.

complex of 2,4-dihydroxy-6-methylpyrimidine with N-methyl-D-glucamine [Glucural]
maturation of salted fish delayed by (another of 5 concentrations (5-100 mg/kg of fish)): 7.5 months | maturation of salted fish retarded to (one of 5 concentrations (5-100 mg/kg of fish)): 5 months
